From paper PMC7425898
These are yes or no findings as the source states them, for the method shown. For some assays here: In cells and extracts the contact can be indirect. Some entries that bind do so weakly or less than the wild type. Blank lines part the entries; values can stand above or below the substance they belong to.

The chains behind the UniProt entries cited, without tags or fusion partners. Where a name states a change or a piece, a line headed by the entry shows the natural chain unless it says otherwise.
UniProt Q9H4A6: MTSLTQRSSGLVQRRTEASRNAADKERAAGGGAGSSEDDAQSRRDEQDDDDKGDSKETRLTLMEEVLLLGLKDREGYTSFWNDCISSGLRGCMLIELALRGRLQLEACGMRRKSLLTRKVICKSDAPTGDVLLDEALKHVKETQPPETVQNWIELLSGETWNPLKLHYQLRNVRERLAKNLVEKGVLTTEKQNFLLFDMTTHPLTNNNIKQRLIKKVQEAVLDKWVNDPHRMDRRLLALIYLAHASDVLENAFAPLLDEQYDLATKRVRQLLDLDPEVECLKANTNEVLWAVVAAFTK
UniProt P62820: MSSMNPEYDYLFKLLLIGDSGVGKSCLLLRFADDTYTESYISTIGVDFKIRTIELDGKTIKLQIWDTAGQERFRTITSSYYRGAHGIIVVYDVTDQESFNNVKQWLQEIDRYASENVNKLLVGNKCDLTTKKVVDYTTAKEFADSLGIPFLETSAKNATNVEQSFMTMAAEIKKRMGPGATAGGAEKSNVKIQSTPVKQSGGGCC
UniProt Q9H0U4: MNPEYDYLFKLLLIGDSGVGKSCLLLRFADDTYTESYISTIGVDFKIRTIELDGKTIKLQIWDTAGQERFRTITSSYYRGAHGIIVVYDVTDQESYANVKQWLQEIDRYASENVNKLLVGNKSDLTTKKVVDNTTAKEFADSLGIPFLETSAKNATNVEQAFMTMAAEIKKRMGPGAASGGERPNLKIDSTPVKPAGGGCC

Legend:
[1] = molecular target: Gal4bd fused to human GOLPH3 (human) (UniProt Q9H4A6); experiment: two-hybrid; Gal4bd-GOLPH3 with Gal4ad-RAB1A/B variants co-transformed in yeast; growth on -His plates at 30°C
[2] = molecular target: GFP-RAB1A-S25N (human) (UniProt P62820); experiment: co-IP; GFP-Trap agarose beads with extracts (0.2 mg) of H4 cells expressing GFP or GFP-RAB1A/B variants, supplemented with extract (0.3 mg) of non-transfected cells; 25 mM Tris-HCl, 50 mM NaCl, 0.1% NP-40, pH 7.5; 1.5-4 h, 4°C; immunoblot for GOLPH3, densitometry
[3] = molecular target: GFP-RAB1B (wild type) (human) (UniProt Q9H0U4); experiment: as above
[4] = molecular target: GFP-RAB1B-S22N (human) (UniProt Q9H0U4); experiment: as above
[5] = molecular target: GFP-RAB1A (wild type) (human) (UniProt P62820); experiment: as above
[6] = molecular target: GST-RAB1A-S25N (human) (UniProt P62820); experiment: pull-down; GST or GST-tagged RAB1A/B variants on glutathione-Sepharose 4B, soluble protein extract of H4 cells (0.5 mg) with protease and phosphatase inhibitors; binding buffer-1; 3 h, 4°C; immunoblot for GOLPH3, densitometry; only the target purified
[7] = molecular target: GST-RAB1B-S22N (human) (UniProt Q9H0U4); experiment: as above
[8] = molecular target: GST-RAB1A (wild type) (human) (UniProt P62820); experiment: as above
[9] = molecular target: GST-RAB1B (wild type) (human) (UniProt Q9H0U4); experiment: as above

Substance: Gal4ad fused to RAB1A-S25N (from UniProt P62820 1-205)
binding [1]: binds

Substance: Gal4ad fused to RAB1B-S22N (from UniProt Q9H0U4 1-201)
binding [1]: binds

Substance: Gal4ad fused to RAB1B-Q67L (from UniProt Q9H0U4 1-201)
binding [1]: binds

More lines, now with the values ahead:

binding [1]: binds
Substance: Gal4ad fused to RAB1A wild type (from UniProt P62820 1-205)

binding [1]: binds
Substance: Gal4ad fused to RAB1A-Q70L (from UniProt P62820 1-205)

binding [1]: binds
Substance: Gal4ad fused to RAB1B wild type (from UniProt Q9H0U4 1-201)

binding [2]: binds | binding [3]: binds | binding [4]: binds | binding [5]: binds | binding [6]: binds | binding [7]: binds | binding [8]: binds | binding [9]: binds
Substance: Endogenous GOLPH3 (from UniProt Q9H4A6 1-298)
